Results are given in words; binding and its absence hold for the method and conditions named. In cells and extracts the contact can be indirect. These calls come from enrichment with a bait or labelling near it, and not all partners need be listed. Tags and fused reporters may be left off the sequences shown.
T1: 6Myc-IDL1 (Arabidopsis thaliana) (UniProt Q9SYQ0)
T1 sequence: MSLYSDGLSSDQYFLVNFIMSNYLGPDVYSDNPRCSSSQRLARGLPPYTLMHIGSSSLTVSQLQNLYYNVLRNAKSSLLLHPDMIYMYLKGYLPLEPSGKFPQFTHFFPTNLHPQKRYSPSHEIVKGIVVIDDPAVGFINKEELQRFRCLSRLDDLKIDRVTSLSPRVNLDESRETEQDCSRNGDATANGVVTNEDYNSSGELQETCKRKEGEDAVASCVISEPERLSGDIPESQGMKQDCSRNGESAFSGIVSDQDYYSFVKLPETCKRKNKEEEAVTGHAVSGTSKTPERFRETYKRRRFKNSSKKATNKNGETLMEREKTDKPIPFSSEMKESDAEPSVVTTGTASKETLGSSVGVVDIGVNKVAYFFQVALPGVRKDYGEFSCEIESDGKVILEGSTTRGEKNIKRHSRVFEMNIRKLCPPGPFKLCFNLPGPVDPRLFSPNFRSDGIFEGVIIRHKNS

T2: IDM1-3HA-YFP (Arabidopsis thaliana) (UniProt F4IXE7)
T2 sequence: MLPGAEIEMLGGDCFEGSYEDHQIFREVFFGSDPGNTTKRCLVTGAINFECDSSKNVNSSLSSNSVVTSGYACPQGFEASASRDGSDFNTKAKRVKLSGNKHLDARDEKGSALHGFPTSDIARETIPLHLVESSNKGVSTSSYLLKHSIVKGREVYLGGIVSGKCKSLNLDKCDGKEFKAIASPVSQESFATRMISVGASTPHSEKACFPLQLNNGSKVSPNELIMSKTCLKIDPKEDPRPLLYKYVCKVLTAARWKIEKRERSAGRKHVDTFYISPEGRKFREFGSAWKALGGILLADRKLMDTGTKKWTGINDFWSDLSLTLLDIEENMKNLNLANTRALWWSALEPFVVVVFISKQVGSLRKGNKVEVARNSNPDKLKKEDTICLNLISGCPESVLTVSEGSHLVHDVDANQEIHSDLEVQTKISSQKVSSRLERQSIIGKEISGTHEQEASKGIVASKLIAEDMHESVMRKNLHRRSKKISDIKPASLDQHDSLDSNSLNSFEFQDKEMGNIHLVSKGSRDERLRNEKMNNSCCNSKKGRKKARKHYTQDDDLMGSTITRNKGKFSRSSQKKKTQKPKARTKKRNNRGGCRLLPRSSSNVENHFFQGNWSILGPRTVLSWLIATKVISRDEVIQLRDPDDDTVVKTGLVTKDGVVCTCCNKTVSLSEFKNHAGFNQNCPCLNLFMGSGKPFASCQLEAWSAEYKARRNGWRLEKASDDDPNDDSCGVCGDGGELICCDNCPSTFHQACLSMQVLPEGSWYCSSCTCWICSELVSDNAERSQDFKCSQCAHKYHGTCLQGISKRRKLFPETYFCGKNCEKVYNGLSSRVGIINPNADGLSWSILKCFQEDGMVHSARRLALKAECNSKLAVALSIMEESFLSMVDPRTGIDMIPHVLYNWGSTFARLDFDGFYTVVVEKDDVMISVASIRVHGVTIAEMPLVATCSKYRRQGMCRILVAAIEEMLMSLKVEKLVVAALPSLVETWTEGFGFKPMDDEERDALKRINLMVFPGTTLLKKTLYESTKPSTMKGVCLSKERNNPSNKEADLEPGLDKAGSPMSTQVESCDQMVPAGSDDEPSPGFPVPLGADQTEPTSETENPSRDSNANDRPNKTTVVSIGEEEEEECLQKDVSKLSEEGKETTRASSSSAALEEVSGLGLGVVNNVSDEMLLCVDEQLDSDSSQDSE

T3: 6Myc-IDM2 (Arabidopsis thaliana) (UniProt Q8RWL4)
T3 sequence: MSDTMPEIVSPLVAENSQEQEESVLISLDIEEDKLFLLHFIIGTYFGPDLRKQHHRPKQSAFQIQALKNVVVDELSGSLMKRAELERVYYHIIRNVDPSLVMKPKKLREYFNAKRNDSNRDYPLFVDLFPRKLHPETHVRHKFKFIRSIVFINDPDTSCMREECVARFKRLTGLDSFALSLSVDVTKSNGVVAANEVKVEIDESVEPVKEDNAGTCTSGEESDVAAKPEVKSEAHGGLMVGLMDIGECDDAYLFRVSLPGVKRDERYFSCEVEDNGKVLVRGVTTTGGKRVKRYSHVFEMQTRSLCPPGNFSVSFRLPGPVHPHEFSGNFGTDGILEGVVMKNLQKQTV


Legend:
[1] = target: T1, 6Myc-IDL1 (Arabidopsis thaliana); assay: affinity purification with mass spectrometry; 6Myc-IDL1 purified from Arabidopsis flower extract on anti-c-Myc agarose, eluted with 0.1 M ammonium hydroxide; lysis buffer 50 mM Tris pH 8.0, 230 mM NaCl, 0.2% NP-40; 4°C; LC-MS/MS
[2] = target: T2, IDM1-3HA-YFP (Arabidopsis thaliana); assay: affinity purification with mass spectrometry; IDM1-3HA-YFP purified from Arabidopsis flower extract on anti-HA agarose, eluted with HA peptide; lysis buffer 50 mM Tris pH 8.0, 230 mM NaCl, 0.2% NP-40; 4°C; LC-MS/MS
[3] = target: T3, 6Myc-IDM2 (Arabidopsis thaliana); assay: affinity purification with mass spectrometry; 6Myc-IDM2 purified from flower extract of transgenic Arabidopsis (idm2-1 background); the methods name IDM2-GFP plants and GFP-Trap A beads; lysis buffer 50 mM Tris pH 8.0, 230 mM NaCl, 0.2% NP-40; 4°C; LC-MS/MS

| Binder | binding [1] | binding [2] | binding [3] |
| --- | --- | --- | --- |
| IDM2 (endogenous) (protein, UniProt Q8RWL4 1-349) MSDTMPEIVSPLVAENSQEQEESVLISLDIEEDKLFLLHFIIGTYFGPDLRKQHHRPKQSAFQIQALKNVVVDELSGSLMKRAELERVYYHIIRNVDPSLVMKPKKLREYFNAKRNDSNRDYPLFVDLFPRKLHPETHVRHKFKFIRSIVFINDPDTSCMREECVARFKRLTGLDSFALSLSVDVTKSNGVVAANEVKVEIDESVEPVKEDNAGTCTSGEESDVAAKPEVKSEAHGGLMVGLMDIGECDDAYLFRVSLPGVKRDERYFSCEVEDNGKVLVRGVTTTGGKRVKRYSHVFEMQTRSLCPPGNFSVSFRLPGPVHPHEFSGNFGTDGILEGVVMKNLQKQTV | binds | binds |  |
| His-MBD7 (natural protein, Arabidopsis thaliana, UniProt Q9FJF4 1-306, looked up, MBD7, Arabidopsis thaliana, AT5G59800; detected with antibodies against the His6 tag; also called His-tagged MBD7; source: E. coli, purified; not shown: His6, N-terminal, kept) MQTRSSSSPSANHRRETQLQIADPTSFCGKIMPGWTVVNRPRSSNNGVVDTYFIEPGTGRQFSSLEAIHRHLAGEVNDRRLTRAGSFFQDKTRVYEGSRTKQDHCGVEYASKGFRLPRGWSVEEVPRKNSHYIDKYYVERKTGKRFRSLVSVERYLRESRNSIEQQLRVLQNRRGHSKDFRLPDGWIVEEKPRRSSSHIDRSYIEPGTGNKFRSMAAVERYLISVGNITLDSVSMVHSERLPLLMNRNGIRFQSEVIDPNPPKKVKWVLTGSGGNMFTANVRGSNVSSLVKHTWSEAFVSLIEDRS | binds |  | binds |
| MBD6 (endogenous) (protein, UniProt Q9LTJ1 1-225) MSDSVAGDFPPDPLLASGAFISSAGDGTLDSSAKRRPIQGGIGISGSGESVRIGMANGTDQVNHQTESKSRKRAAPGDNWLPPGWRVEDKIRTSGATAGSVDKYYYEPNTGRKFRSRTEVLYYLEHGTSKRGTKKAENTYFNPDHFEGQGSNRVTRTATVPPPPPPPLDFDFKNPPDKVSWSMANAGEEGWIPNIGDVKVQDSVRRDWSTAFTFITSRNPSKVSA | binds | binds |  |
| IDL1 (endogenous) (protein, UniProt Q9SYQ0 1-463) MSLYSDGLSSDQYFLVNFIMSNYLGPDVYSDNPRCSSSQRLARGLPPYTLMHIGSSSLTVSQLQNLYYNVLRNAKSSLLLHPDMIYMYLKGYLPLEPSGKFPQFTHFFPTNLHPQKRYSPSHEIVKGIVVIDDPAVGFINKEELQRFRCLSRLDDLKIDRVTSLSPRVNLDESRETEQDCSRNGDATANGVVTNEDYNSSGELQETCKRKEGEDAVASCVISEPERLSGDIPESQGMKQDCSRNGESAFSGIVSDQDYYSFVKLPETCKRKNKEEEAVTGHAVSGTSKTPERFRETYKRRRFKNSSKKATNKNGETLMEREKTDKPIPFSSEMKESDAEPSVVTTGTASKETLGSSVGVVDIGVNKVAYFFQVALPGVRKDYGEFSCEIESDGKVILEGSTTRGEKNIKRHSRVFEMNIRKLCPPGPFKLCFNLPGPVDPRLFSPNFRSDGIFEGVIIRHKNS |  | binds | binds |
| IDM1 (endogenous) (protein, UniProt F4IXE7 1-1189) MLPGAEIEMLGGDCFEGSYEDHQIFREVFFGSDPGNTTKRCLVTGAINFECDSSKNVNSSLSSNSVVTSGYACPQGFEASASRDGSDFNTKAKRVKLSGNKHLDARDEKGSALHGFPTSDIARETIPLHLVESSNKGVSTSSYLLKHSIVKGREVYLGGIVSGKCKSLNLDKCDGKEFKAIASPVSQESFATRMISVGASTPHSEKACFPLQLNNGSKVSPNELIMSKTCLKIDPKEDPRPLLYKYVCKVLTAARWKIEKRERSAGRKHVDTFYISPEGRKFREFGSAWKALGGILLADRKLMDTGTKKWTGINDFWSDLSLTLLDIEENMKNLNLANTRALWWSALEPFVVVVFISKQVGSLRKGNKVEVARNSNPDKLKKEDTICLNLISGCPESVLTVSEGSHLVHDVDANQEIHSDLEVQTKISSQKVSSRLERQSIIGKEISGTHEQEASKGIVASKLIAEDMHESVMRKNLHRRSKKISDIKPASLDQHDSLDSNSLNSFEFQDKEMGNIHLVSKGSRDERLRNEKMNNSCCNSKKGRKKARKHYTQDDDLMGSTITRNKGKFSRSSQKKKTQKPKARTKKRNNRGGCRLLPRSSSNVENHFFQGNWSILGPRTVLSWLIATKVISRDEVIQLRDPDDDTVVKTGLVTKDGVVCTCCNKTVSLSEFKNHAGFNQNCPCLNLFMGSGKPFASCQLEAWSAEYKARRNGWRLEKASDDDPNDDSCGVCGDGGELICCDNCPSTFHQACLSMQVLPEGSWYCSSCTCWICSELVSDNAERSQDFKCSQCAHKYHGTCLQGISKRRKLFPETYFCGKNCEKVYNGLSSRVGIINPNADGLSWSILKCFQEDGMVHSARRLALKAECNSKLAVALSIMEESFLSMVDPRTGIDMIPHVLYNWGSTFARLDFDGFYTVVVEKDDVMISVASIRVHGVTIAEMPLVATCSKYRRQGMCRILVAAIEEMLMSLKVEKLVVAALPSLVETWTEGFGFKPMDDEERDALKRINLMVFPGTTLLKKTLYESTKPSTMKGVCLSKERNNPSNKEADLEPGLDKAGSPMSTQVESCDQMVPAGSDDEPSPGFPVPLGADQTEPTSETENPSRDSNANDRPNKTTVVSIGEEEEEECLQKDVSKLSEEGKETTRASSSSAALEEVSGLGLGVVNNVSDEMLLCVDEQLDSDSSQDSE | binds |  | binds |

— paper PMC4416881, “Regulation of Active DNA Demethylation by a Methyl-CpG-Binding Domain Protein in Arabidopsis thaliana” (PLoS Genetics, 2015)
